Test results published in the supplement of paper PMC10849652.
Some of the results follow.

Chains of the proteins cited; added tags and fusions are not shown. Lines headed by an entry give the natural chain unless they say otherwise; changes in a name come on top.
UniProt Q12906, whole entry, looked up: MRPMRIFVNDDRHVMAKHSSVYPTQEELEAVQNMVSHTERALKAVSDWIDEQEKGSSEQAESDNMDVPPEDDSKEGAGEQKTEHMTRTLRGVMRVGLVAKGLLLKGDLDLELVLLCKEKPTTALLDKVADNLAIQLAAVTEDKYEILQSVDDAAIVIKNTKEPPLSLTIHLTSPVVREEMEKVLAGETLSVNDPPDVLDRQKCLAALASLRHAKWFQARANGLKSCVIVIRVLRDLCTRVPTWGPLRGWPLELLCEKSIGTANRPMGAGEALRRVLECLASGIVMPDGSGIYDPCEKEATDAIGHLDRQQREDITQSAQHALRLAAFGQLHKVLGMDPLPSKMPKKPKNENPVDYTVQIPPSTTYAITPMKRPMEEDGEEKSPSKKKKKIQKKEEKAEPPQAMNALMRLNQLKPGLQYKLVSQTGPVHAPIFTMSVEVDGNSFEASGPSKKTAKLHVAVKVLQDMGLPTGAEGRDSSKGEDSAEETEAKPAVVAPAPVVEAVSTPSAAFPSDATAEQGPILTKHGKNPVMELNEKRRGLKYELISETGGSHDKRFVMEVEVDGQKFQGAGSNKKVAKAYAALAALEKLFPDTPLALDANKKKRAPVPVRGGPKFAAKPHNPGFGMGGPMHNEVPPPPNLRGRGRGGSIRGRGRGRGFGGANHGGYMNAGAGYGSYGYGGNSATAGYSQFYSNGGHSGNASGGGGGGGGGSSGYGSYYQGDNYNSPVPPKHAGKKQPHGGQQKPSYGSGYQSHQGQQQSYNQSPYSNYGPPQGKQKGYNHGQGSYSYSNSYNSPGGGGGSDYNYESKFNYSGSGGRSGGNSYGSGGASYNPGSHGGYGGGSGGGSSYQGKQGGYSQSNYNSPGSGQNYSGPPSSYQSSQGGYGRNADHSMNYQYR
UniProt P51617, whole entry, looked up: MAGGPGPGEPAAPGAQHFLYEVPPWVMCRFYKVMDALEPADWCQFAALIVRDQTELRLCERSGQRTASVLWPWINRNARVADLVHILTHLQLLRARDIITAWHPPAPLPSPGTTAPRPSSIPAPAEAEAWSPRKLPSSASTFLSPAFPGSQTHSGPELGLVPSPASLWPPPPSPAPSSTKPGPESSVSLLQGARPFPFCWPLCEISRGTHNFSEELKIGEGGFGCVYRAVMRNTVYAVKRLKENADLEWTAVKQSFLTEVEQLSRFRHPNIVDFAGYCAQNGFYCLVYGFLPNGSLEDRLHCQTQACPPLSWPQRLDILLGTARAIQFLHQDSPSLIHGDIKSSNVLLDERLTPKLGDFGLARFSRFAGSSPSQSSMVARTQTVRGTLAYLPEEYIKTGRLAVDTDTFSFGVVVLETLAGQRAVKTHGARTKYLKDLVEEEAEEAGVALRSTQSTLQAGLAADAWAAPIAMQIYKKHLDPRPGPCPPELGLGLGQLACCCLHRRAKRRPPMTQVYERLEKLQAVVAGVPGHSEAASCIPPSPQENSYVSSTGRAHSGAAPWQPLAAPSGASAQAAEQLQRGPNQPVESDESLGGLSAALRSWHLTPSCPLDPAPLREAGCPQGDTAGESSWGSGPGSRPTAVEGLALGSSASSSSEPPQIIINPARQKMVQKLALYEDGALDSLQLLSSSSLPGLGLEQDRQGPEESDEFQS
UniProt P15260: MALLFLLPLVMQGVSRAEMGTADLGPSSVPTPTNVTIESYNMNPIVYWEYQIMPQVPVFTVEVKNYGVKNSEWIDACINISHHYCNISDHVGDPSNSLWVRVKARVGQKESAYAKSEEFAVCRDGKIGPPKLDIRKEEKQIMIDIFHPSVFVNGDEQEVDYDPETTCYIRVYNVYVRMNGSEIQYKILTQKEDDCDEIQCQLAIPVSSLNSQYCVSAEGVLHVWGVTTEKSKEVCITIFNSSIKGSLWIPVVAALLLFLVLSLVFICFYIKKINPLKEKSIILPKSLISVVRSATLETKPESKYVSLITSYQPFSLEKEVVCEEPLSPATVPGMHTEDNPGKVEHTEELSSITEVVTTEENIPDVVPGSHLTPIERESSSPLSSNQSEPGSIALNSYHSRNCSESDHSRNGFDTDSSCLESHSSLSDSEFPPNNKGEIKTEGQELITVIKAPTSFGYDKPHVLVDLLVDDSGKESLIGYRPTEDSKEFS
UniProt P01876, whole entry, looked up: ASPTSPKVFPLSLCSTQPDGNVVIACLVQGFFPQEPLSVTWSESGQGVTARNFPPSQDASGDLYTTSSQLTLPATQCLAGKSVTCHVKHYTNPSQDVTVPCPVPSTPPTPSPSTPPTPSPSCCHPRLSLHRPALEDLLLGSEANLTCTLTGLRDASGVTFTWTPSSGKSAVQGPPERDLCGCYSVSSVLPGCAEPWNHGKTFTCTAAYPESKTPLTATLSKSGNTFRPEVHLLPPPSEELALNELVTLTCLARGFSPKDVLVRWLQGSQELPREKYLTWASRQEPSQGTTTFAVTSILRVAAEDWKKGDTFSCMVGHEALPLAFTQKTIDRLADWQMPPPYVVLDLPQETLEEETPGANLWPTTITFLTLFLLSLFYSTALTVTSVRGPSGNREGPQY
UniProt P01344, whole entry, looked up: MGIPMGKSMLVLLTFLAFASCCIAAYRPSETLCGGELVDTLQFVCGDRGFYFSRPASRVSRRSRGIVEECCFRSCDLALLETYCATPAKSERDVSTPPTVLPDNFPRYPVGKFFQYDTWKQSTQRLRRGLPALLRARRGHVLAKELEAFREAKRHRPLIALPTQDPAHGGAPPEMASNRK
UniProt Q13422: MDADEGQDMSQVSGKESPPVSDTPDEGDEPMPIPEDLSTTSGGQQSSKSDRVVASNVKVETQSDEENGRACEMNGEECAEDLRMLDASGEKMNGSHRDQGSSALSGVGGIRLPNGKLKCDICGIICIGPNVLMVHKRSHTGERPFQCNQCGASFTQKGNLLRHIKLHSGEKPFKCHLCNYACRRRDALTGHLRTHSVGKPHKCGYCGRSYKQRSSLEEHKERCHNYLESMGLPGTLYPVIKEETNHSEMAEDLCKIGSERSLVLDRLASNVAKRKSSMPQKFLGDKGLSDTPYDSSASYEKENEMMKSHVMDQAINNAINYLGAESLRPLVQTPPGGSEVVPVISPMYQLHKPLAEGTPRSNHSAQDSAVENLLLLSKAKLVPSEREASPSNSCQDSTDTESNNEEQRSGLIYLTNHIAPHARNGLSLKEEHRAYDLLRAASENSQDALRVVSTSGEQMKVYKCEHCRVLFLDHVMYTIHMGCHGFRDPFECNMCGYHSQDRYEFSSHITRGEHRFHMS
UniProt Q13352: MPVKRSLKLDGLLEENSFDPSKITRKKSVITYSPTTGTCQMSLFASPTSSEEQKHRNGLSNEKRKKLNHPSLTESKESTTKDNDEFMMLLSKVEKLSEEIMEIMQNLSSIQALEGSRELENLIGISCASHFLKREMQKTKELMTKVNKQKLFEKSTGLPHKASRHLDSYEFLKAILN
UniProt Q9BW83: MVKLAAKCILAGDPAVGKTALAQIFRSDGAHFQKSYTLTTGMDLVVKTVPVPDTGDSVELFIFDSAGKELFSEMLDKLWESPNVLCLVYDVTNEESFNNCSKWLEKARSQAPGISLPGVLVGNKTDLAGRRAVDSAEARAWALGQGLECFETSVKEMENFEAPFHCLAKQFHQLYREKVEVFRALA
IGKV3D-11, A0A0A0MRZ8, UniProt A0A0A0MRZ8, whole entry, looked up: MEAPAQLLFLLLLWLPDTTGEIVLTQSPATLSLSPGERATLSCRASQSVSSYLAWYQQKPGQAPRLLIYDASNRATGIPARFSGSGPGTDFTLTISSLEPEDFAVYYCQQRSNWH
UniProt Q9NQX7: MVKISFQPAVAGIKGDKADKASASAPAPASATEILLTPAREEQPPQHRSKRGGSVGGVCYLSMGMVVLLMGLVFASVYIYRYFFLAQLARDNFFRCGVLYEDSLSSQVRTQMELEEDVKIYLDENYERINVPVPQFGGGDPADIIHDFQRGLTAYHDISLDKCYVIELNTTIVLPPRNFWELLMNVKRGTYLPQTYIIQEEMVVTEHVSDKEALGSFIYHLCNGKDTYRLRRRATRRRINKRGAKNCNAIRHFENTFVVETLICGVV
UniProt P22304: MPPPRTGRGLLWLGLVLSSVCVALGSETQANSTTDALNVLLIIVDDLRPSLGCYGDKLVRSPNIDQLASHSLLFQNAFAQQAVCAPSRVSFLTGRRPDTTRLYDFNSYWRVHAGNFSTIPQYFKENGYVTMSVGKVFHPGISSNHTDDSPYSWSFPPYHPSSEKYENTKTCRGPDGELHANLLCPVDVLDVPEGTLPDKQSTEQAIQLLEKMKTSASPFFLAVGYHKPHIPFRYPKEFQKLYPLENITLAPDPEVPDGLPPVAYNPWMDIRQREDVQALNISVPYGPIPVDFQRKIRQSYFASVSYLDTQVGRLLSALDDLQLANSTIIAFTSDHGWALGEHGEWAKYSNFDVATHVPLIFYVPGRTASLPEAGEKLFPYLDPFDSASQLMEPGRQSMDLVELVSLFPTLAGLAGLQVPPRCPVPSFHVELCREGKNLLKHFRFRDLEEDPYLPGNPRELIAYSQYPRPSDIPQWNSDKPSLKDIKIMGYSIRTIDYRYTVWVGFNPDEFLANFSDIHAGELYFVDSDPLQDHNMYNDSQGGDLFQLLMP
UniProt Q5VWK5: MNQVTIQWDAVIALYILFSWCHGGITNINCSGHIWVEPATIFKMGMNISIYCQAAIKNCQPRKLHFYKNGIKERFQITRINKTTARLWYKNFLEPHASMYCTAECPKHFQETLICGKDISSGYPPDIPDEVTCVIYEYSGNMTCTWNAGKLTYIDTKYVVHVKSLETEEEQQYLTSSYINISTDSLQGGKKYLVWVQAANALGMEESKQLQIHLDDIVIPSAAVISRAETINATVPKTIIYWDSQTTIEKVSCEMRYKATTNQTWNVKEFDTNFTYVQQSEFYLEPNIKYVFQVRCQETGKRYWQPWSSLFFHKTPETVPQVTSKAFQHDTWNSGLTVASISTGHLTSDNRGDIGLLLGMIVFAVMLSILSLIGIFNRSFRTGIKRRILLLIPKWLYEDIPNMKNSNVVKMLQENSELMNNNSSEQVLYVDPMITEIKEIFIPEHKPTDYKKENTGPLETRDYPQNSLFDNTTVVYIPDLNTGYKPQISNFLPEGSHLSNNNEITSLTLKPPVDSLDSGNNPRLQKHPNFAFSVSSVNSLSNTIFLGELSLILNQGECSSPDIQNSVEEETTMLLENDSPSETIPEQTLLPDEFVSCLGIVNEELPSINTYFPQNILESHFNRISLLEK
UniProt Q96CB8, whole entry, looked up: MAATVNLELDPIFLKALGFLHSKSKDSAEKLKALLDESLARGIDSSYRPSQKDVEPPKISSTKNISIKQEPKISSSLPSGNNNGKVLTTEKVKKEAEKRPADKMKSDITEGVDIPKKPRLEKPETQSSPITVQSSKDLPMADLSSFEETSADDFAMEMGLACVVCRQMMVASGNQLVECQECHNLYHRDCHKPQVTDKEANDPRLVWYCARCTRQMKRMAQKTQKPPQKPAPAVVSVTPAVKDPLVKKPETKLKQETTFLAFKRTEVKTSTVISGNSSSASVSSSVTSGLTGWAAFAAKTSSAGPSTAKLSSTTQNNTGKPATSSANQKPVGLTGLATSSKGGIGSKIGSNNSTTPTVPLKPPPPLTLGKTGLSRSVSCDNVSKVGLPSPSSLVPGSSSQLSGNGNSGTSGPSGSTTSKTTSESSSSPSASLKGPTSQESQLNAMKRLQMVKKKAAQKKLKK
UniProt Q9Y573: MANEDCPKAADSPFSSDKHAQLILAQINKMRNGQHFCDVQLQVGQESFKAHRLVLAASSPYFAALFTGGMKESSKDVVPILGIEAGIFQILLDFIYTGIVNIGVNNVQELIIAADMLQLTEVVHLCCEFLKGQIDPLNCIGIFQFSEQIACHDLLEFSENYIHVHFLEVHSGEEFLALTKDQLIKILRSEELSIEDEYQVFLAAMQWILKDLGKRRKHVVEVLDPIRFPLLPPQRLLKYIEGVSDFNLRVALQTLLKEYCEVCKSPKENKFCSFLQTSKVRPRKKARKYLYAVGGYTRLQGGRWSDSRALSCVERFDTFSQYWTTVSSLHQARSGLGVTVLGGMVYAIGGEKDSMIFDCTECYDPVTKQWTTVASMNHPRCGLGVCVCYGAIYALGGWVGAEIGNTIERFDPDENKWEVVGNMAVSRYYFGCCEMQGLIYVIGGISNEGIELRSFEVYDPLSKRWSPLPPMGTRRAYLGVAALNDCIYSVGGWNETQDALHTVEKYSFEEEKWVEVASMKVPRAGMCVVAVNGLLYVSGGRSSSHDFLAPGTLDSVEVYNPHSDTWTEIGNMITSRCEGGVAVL
UniProt P01877, whole entry, looked up: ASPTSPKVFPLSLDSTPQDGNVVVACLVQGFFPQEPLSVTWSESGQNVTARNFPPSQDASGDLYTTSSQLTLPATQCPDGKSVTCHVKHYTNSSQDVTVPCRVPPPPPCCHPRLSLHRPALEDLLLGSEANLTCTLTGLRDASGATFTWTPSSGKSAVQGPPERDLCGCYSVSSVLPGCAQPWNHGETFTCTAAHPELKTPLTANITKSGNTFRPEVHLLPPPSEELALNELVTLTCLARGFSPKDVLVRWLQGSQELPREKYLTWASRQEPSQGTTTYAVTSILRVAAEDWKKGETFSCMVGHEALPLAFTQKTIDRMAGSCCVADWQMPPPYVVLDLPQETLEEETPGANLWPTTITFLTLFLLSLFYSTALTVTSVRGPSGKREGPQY

Legend:
Assay in all cases: log2 fold change, soluble protein after heating vs DMSO (PISA); higher = thermal stabilisation; K562 cells, 10 uM, 30 min; active = over 0.2 and 3.5 SD of the protein, either way, in both replicates (recomputed)
[1] = compound: COC1=CC=C(C=C1)CN2C=CC3=C2C=C(C=C3)C(=O)NO
In short: (§1)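 K562 cells at 2×10^6 cells/mL were treated with 10 μM compound for 30 min. Aliquots were heated for 3 min across 48°C-58°C, pooled, and extracted in PBS with 0.5% NP-40 at 4°C; soluble protein was the supernatant after 21,000xg for 90 min. Soluble protein was quantified by TMTpro 16plex LC-MS/MS with channel sums equalised, and reported as log2 fold change in thermal stability against DMSO controls, with values from duplicates.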

filanesib = compound: CON(C)C(=O)N1N=C(c2cc(F)ccc2F)S[C@@]1(CCCN)c1ccccc1 [filanesib]
In short: as §1

alisertib = compound: COc1cc(Nc2ncc3c(n2)-c2ccc(Cl)cc2C(c2c(F)cccc2OC)=NC3)ccc1C(=O)O [alisertib]
In short: as §1

gefitinib = compound: COc1cc2ncnc(Nc3ccc(F)c(Cl)c3)c2cc1OCCCN1CCOCC1 [gefitinib]
In short: as §1

[2] = compound: COc1cccc2cc(-c3nc([C@H]4CC[C@H](C(=O)O)CC4)n4ncnc(N)c34)[nH]c12
In short: as §1

[3] = compound: CS(=O)(=O)c1ccc(-c2cnc(N)c(C(=O)Nc3ccccc3)n2)cc1
In short: as §1

crizotinib = compound: C[C@@H](Oc1cc(-c2cnn(C3CCNCC3)c2)cnc1N)c1c(Cl)ccc(F)c1Cl [crizotinib]
In short: as §1

[4] = compound: C[C@@H]1COCCN1C2=NC(=NC(=C2)C3(CC3)S(=O)(=O)C)C4=C5C=CNC5=CC=C4
In short: as §1

doramapimod = compound: Cc1ccc(-n2nc(C(C)(C)C)cc2NC(=O)Nc2ccc(OCCN3CCOCC3)c3ccccc23)cc1 [doramapimod]
In short: as §1

pictilisib = compound: CS(=O)(=O)N1CCN(Cc2cc3nc(-c4cccc5[nH]ncc45)nc(N4CCOCC4)c3s2)CC1 [pictilisib]
In short: as §1

gandotinib = compound: Cc1cc(Nc2cc(CN3CCOCC3)c3nc(C)c(Cc4ccc(Cl)cc4F)n3n2)n[nH]1 [gandotinib]
In short: as §1

ispinesib = compound: Cc1ccc(C(=O)N(CCCN)[C@@H](c2nc3cc(Cl)ccc3c(=O)n2Cc2ccccc2)C(C)C)cc1 [ispinesib]
In short: as §1

zotarolimus = compound: CO[C@H]1C[C@@H]2CC[C@@H](C)[C@@](O)(O2)C(=O)C(=O)N2CCCC[C@H]2C(=O)O[C@H]([C@H](C)C[C@@H]2CC[C@H](n3cnnn3)[C@H](OC)C2)CC(=O)[C@H](C)/C=C(\C)[C@@H](O)[C@@H](OC)C(=O)[C@H](C)C[C@H](C)/C=C/C=C/C=C/1C [zotarolimus]
In short: as §1

[5] = compound: COc1cc2nc(-c3cc(F)ccc3O)nc(N[C@@H]3CNC[C@H]3C(C)(C)O)c2cc1OC
In short: as §1

lapatinib = compound: CS(=O)(=O)CCNCc1ccc(-c2ccc3ncnc(Nc4ccc(OCc5cccc(F)c5)c(Cl)c4)c3c2)o1 [lapatinib]
In short: as §1

[6] = compound: C[C@H](C1=CC=C(C=C1)C(=O)NC2=C3C=CNC3=NC=C2)N
In short: as §1

idasanutlin = compound: COc1cc(C(=O)O)ccc1NC(=O)[C@@H]1N[C@@H](CC(C)(C)C)[C@](C#N)(c2ccc(Cl)cc2F)[C@H]1c1cccc(Cl)c1F [idasanutlin]
In short: as §1

[7] = compound: Cc1cc(SCc2sc(-c3ccc(C(F)(F)F)cc3)nc2C)ccc1OCC(=O)O
In short: as §1

tozasertib = compound: Cc1cc(Nc2cc(N3CCN(C)CC3)nc(Sc3ccc(NC(=O)C4CC4)cc3)n2)n[nH]1 [tozasertib]
In short: as §1

duvelisib = compound: C[C@H](Nc1ncnc2nc[nH]c12)c1cc2cccc(Cl)c2c(=O)n1-c1ccccc1 [duvelisib]
In short: as §1

Measured: log2 fold change

ILF3 (UniProt Q12906)
inactive: [1] 0.033 | filanesib 0.156 | alisertib -0.203 | gefitinib -0.13 | [2] 0.045 | [3] -0.152 | crizotinib -0.201 | [4] -0.284 | doramapimod 0.026

IRAK1 (UniProt P51617)
inactive: [1] -0.06 | filanesib 0.171 | alisertib -0.169 | gefitinib -0.027 | [2] -0.097 | pictilisib -0.094 | [3] 0.248 | crizotinib -0.002 | [4] -0.025 | gandotinib 0.006 | doramapimod 0.205 | ispinesib -0.216

ING5 (UniProt Q8WYH8)
inactive: [1] 0.208 | zotarolimus 0.014 | alisertib 0.003 | [5] 0.127 | [2] 0.179 | lapatinib -0.128 | crizotinib -0.36 | [6] -0.018 | doramapimod -0.019

INTS5 (UniProt Q6P9B9)
inactive: [1] -0.02 | filanesib -0.055 | idasanutlin 0.045 | alisertib -0.019 | [5] -0.111 | gefitinib -0.017 | [2] -0.004 | lapatinib 0.13 | [3] 0.029 | crizotinib -0.013 | [4] 0.058 | [7] 0.008 | doramapimod 0.006 | ispinesib 0.025

IGKC (UniProt P01834)
inactive: [1] 0.489 | filanesib 0.641 | idasanutlin 0.211 | alisertib 0.434 | gefitinib 0.07 | [2] -0.111 | [3] -0.002 | crizotinib -0.51 | tozasertib 0.469 | doramapimod -0.781 | ispinesib 1.34

IFNGR1 (UniProt P15260)
inactive: filanesib 0.091 | zotarolimus -0.067 | idasanutlin 0.105 | alisertib -0.09 | [5] 0.207 | gefitinib 0.097 | [2] 0.143 | lapatinib -0.058 | pictilisib -0.085 | [3] 0.135 | [4] -0.1 | [6] 0.068 | gandotinib -0.053 | [7] -0.162 | ispinesib -0.041

IGLL5 (UniProt B9A064)
inactive: [1] 0.37 | filanesib 0.202 | alisertib 0.017 | [5] -0.046 | gefitinib 0.252 | [2] 0.169 | lapatinib 0.016 | pictilisib -0.011 | [3] -0.213 | crizotinib -0.161 | gandotinib -0.223 | tozasertib -0.086 | doramapimod -0.206

IMPDH2 (UniProt H0Y4R1)
inactive: [1] 0.061 | idasanutlin -0.239 | alisertib 0.16 | [5] -0.15 | gefitinib 0.016 | [2] -0.003 | lapatinib 0.091 | pictilisib -0.1 | crizotinib 0.059 | [4] -0.21 | gandotinib 0.198 | tozasertib -0.183 | doramapimod 0.067 | ispinesib 0.031

2 consecutive records out of the list so far, quoted:
IGLL5 (UniProt B9A064)
inactive: [1] 0.37 | filanesib 0.202 | alisertib 0.017 | [5] -0.046 | gefitinib 0.252 | [2] 0.169 | lapatinib 0.016 | pictilisib -0.011 | [3] -0.213 | crizotinib -0.161 | gandotinib -0.223 | tozasertib -0.086 | doramapimod -0.206

IMPDH2 (UniProt H0Y4R1)
inactive: [1] 0.061 | idasanutlin -0.239 | alisertib 0.16 | [5] -0.15 | gefitinib 0.016 | [2] -0.003 | lapatinib 0.091 | pictilisib -0.1 | crizotinib 0.059 | [4] -0.21 | gandotinib 0.198 | tozasertib -0.183 | doramapimod 0.067 | ispinesib 0.031

Remaining list, next part:

IGHA1 (UniProt P01876)
inactive: filanesib 0.456 | zotarolimus -0.387 | idasanutlin 0.261 | alisertib 0.405 | [5] -0.018 | gefitinib 0.265 | [2] -0.192 | lapatinib 0.332 | pictilisib 0.264 | [3] -0.024 | [4] 0.327 | [6] 0.065 | duvelisib -0.106 | gandotinib -0.265 | tozasertib 0.082 | [7] -0.39 | ispinesib 1.36

IGF2 isoform 3 (UniProt P01344)
inactive: [1] 0.041 | crizotinib -0.07 | [7] 0.03 | doramapimod -0.13

IDH3A isoform 2 (UniProt P50213)
inactive: [1] 0.32 | zotarolimus -0.056 | idasanutlin -0.246 | gefitinib 0.029 | crizotinib -0.206 | [6] -0.016 | doramapimod 0.051

INO80E (UniProt Q8NBZ0)
inactive: [1] 0.011 | idasanutlin 0.162 | alisertib -0.036 | [5] 0.116 | [2] 0.005 | lapatinib 0.038 | pictilisib 0.139 | crizotinib -0.041 | gandotinib -0.059 | tozasertib -0.086 | doramapimod 0.056 | ispinesib 0.023

IQSEC2 (UniProt Q5JU85)
inactive: zotarolimus -0.081 | alisertib -0.062 | [5] -0.202 | gefitinib 0.109 | [2] -0.137 | lapatinib -0.12 | [6] 0.255 | duvelisib -0.114 | [7] 0.416

IMP4 (UniProt Q96G21)
inactive: filanesib 0.194 | idasanutlin 0.079 | pictilisib 0.082 | [3] 0.042 | duvelisib 0.038 | gandotinib 0.203 | [7] -0.203 | ispinesib -0.077

IKZF1 isoform 2 (UniProt Q13422)
inactive: filanesib -0.075 | zotarolimus 0.1 | alisertib 0.079 | gefitinib -0.044 | [2] -0.031 | [3] 0.081 | [6] 0.059 | ispinesib -0.034

ING4 (UniProt Q9UNL4)
inactive: idasanutlin -0.201 | [4] 0.014 | duvelisib 0.027 | tozasertib 0.235 | [7] -0.052

ISL2 (UniProt H0YN25)
inactive: duvelisib -0.111 | [7] -0.197

ITGB3BP isoform 5 (UniProt Q13352)
inactive: gefitinib -0.143 | ispinesib 0.039

INIP (UniProt Q9NRY2)
inactive: filanesib 0.14 | alisertib -0.076 | [5] -0.275 | gefitinib 0.077 | [2] 0.109 | lapatinib -0.072 | [3] -0.02 | [4] -0.05

IGLC3 (UniProt P0DOY3)
inactive: alisertib 0.156 | gefitinib 0.346 | [2] -0.193

IQGAP3 (UniProt Q86VI3)
inactive: ispinesib -0.072

IRF2BP1 (UniProt Q8IU81)
inactive: filanesib 0.033 | zotarolimus 0.061 | alisertib -0.03 | [5] -0.011 | [2] 0.19 | lapatinib -0.194 | [3] -0.004 | [6] -0.051 | duvelisib -0.245 | tozasertib -0.002 | [7] 0.27 | ispinesib 0.046

IFT27 (UniProt Q9BW83)
inactive: zotarolimus -0.161 | idasanutlin 0.02 | [5] 0.138 | lapatinib 0.028 | pictilisib -0.094 | [6] 0.075 | duvelisib 0.034 | gandotinib 0.191 | [7] -0.053

IGKV3D-11, A0A0A0MRZ8
inactive: gefitinib 0.157

ITIH1 (UniProt P19827)
inactive: idasanutlin 0.034 | alisertib 0.491 | [2] 0.22

IL1RAP isoform 5 (UniProt Q9NPH3)
inactive: zotarolimus 0.003 | idasanutlin -0.507 | [5] 0.12 | lapatinib -0.057 | pictilisib 0.007 | [4] 0.14 | [6] 0.342 | duvelisib 0.168 | gandotinib -0.361 | tozasertib -0.12 | [7] -0.006 | ispinesib -0.283

IL17RA (UniProt Q96F46)
inactive: filanesib 0.024 | idasanutlin 0.07 | alisertib -0.069 | [2] -0.528 | [3] -0.159 | tozasertib 0.021

ITM2C (UniProt Q9NQX7)
inactive: filanesib -0.275 | zotarolimus -0.047 | idasanutlin -0.061 | [5] -0.12 | gefitinib -0.092 | lapatinib -0.045 | pictilisib -0.149 | [3] 0.117 | [4] 0.239 | [6] 0.137 | gandotinib 0.083 | [7] 0.011 | ispinesib 0.051

IQSEC1 (UniProt Q6DN90)
inactive: filanesib 0.015 | [3] -0.007

IGSF1 isoform 4 (UniProt Q8N6C5)
inactive: idasanutlin -0.18 | alisertib 0.171 | [5] 0.077 | [2] 0.113 | lapatinib -0.01

IGFBP6 (UniProt P24592)
active: zotarolimus -1.03 | idasanutlin 0.776 | ispinesib -0.712
inactive: [6] -0.035 | [7] 0.14

INTS1 (UniProt Q8N201)
inactive: filanesib -0.318 | alisertib 0.086 | gefitinib -0.054 | [2] 0.093 | pictilisib 0.232 | [3] 0.118 | [4] -0.099 | duvelisib 0.221 | gandotinib 0.142 | tozasertib -0.071 | [7] -0.126 | ispinesib -0.006

ING3 (UniProt Q9NXR8)
inactive: pictilisib -0.148 | gandotinib 0.02

IGHG1 (UniProt P01857)
inactive: filanesib 0.873 | alisertib 0.606 | gefitinib 0.099 | [2] -0.169 | [3] 0.136 | duvelisib -0.156 | [7] 0.033

INHBE (UniProt P58166)
inactive: filanesib 0.196 | alisertib -0.037 | [2] -0.035 | [3] 0.001

IDS (UniProt P22304)
inactive: [5] 0.198 | lapatinib -0.001 | pictilisib -0.012 | gandotinib 0.019 | ispinesib 0.015

IFT20 isoform 2 (UniProt Q8IY31)
inactive: filanesib 0.059 | alisertib 0.131 | gefitinib 0.038 | [2] -0.112 | [3] 0.088 | ispinesib 0.036

IPMK (UniProt Q8NFU5)
inactive: gefitinib 0.091

IL23R (UniProt Q5VWK5)
inactive: zotarolimus -0.058 | idasanutlin -0.009 | [6] 0.537 | duvelisib 0.097 | tozasertib -0.064 | [7] 0.094

ITGB1BP1 (UniProt O14713)
inactive: [4] -0.029 | duvelisib 0.04 | tozasertib -0.085 | [7] -0.284 | ispinesib -0.007

INTS12 (UniProt Q96CB8)
inactive: zotarolimus -0.113 | [6] -0.155 | duvelisib -0.103 | tozasertib 0.17 | [7] 0.251

IPP (UniProt Q9Y573)
inactive: idasanutlin 0.051

IL2RG (UniProt P31785)
inactive: zotarolimus -0.267 | gefitinib 0.123 | pictilisib 0.035 | [4] -0.049 | [6] -0.45 | gandotinib 0.026 | tozasertib 0.103

IGHA2 (UniProt P01877)
inactive: gefitinib 0.235

IGFBP5 (UniProt P24593)
inactive: filanesib -0.141 | alisertib 0.052 | [2] 0.035 | [3] -0.033 | [4] 0.021 | tozasertib 0.144

IDUA (UniProt P35475)
inactive: alisertib 0.259 | [5] -0.001 | [2] -0.034 | lapatinib -0.017 | pictilisib 0.029 | [4] -0.032 | gandotinib -0.012
